Test results taken from paper PMC12756002.
Numbering of substitutions follows the chain as printed. Names may count otherwise. No constants are given. Whether binding was seen depends on the method and setting. Some binding calls cover weakened binding; strength is not graded here.

B1: Sis1-N56L (protein, UniProt P25294 1-352)
chain: MVKETKLYDLLGVSPSANEQELKKGYRKAALKYHPDKPTGDTEKFKEISEAFEILLDPQKREIYDQYGLEAARSGGPSFGPGGPGGAGGAGGFPGGAGGFSGGHAFSNEDAFNIFSQFFGGSSPFGGADDSGFSFSSYPSGGGAGMGGMPGGMGGMHGGMGGMPGGFRSASSSPTYPEEETVQVNLPVSLEDLFVGKKKSFKIGRKGPHGASEKTQIDIQLKPGWKAGTKITYKNQGDYNPQTGRRKTLQFVIQEKSHPNFKRDGDDLIYTLPLSFKESLLGFSKTIQTIDGRTLPLSRVQPVQPSQTSTYPGQGMPTPKNPSQRGNLIVKYKVDYPISLNDAQKRAIDENF
B2: Sis1-WT (protein, UniProt P25294 1-352)
chain: B1 chain with L56N
B3: Sis1-S49V (protein, UniProt P25294 1-352)
chain: B1 chain with S49V, L56N
B4: Sis1-E53A (protein, UniProt P25294 1-352)
chain: B1 chain with E53A, L56N
B5: Sis1-E53K (protein, UniProt P25294 1-352)
chain: B1 chain with E53K, L56N

Target: firefly luciferase (firefly) [luciferase: P08659]
Experiment: ELISA; denatured substrate (FL Rnq1 or ΔN Rnq1 400 ng, luciferase 100 ng) immobilised in microtiter wells; dilutions of Sis1-WT or mutants (0-20 or 0-25 nM) in PBS-T with 0.5% BSA, overnight at room temperature; retained Sis1 detected with an anti-Sis1 antibody; both purified

Binder | binding
B1 | binds
B2 | binds
B3 | binds
B4 | binds
B5 | binds
